# Results deposited as PubChem BioAssay AID1159578 (Peter MacCallum Cancer Centre, 2015).
# Purpose: 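siRNA pools altering how lymphatic endothelial cells close a scratch wound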 (primary screen)
# Cell system: human lymphatic endothelial cells
# Knock-down reagent: siRNA pool against human genes, 40 nM
# Duration: 48 h after transfection
# Measured: 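Cells stained with dye and imaged after a scratch; covered wound area and nuclei counted, duplicates averaged, migration set against mock wells and turned into a robust z-score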
# Scale: migration robust z-score: higher = faster migration into the scratch; migration relative to mock: higher = more scratch area covered than mock; nuclei per well: higher = more cells in the well
# Rule for the call: 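Migration changed when robust z exceeds 2 or falls below -2 and mean nuclei number is at least 3300; otherwise not called changed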
# Calls: active = migration changed; inactive = no migration change, or too few cells
# Here is a random part of about 18,000 reagents. About 1,030 of them (5.7%) were called active. 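Inactive calls also include pools with fewer than 3300 nuclei, whose migration was not assessed.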 Raw values are not corrected between plates. No sequences are given here.
gene symbol,migration robust z-score,migration class with cell-count check,migration relative to mock,"nuclei per well, duplicate mean",outcome
CRYL1,-1.09,migration z between -2 and 2; enough cells,0.6,5291,inactive
PDE8B,-1.3,migration z between -2 and 2; enough cells,0.56,4394,inactive
JADE1,0.91,migration z between -2 and 2; enough cells,0.98,5354,inactive
CUL5,0.75,migration z between -2 and 2; enough cells,0.95,5601,inactive
RPL7A,-3.64,under 3300 nuclei; migration not judged,-0.06,2170,inactive
THRAP3,-0.13,migration z between -2 and 2; enough cells,0.85,6752,inactive
SQOR,-0.44,migration z between -2 and 2; enough cells,0.72,5193,inactive
SLC16A13,-0.82,migration z between -2 and 2; enough cells,0.67,5352,inactive
GUCA1B,-0.1,migration z between -2 and 2; enough cells,0.78,5186,inactive
KLHL42,-1.1,migration z between -2 and 2; enough cells,0.6,5467,inactive
CRYAA,-0.2,migration z between -2 and 2; enough cells,0.84,4504,inactive
ARFGAP2,-1.27,migration z between -2 and 2; enough cells,0.55,5264,inactive
POLR2J,-2.72,migration z below -2; enough cells,0.28,5091,active
ACADVL,0.42,migration z between -2 and 2; enough cells,0.88,4949,inactive
ZBTB37,-0.54,migration z between -2 and 2; enough cells,0.74,5784,inactive
GZMA,0.1,migration z between -2 and 2; enough cells,0.82,5885,inactive
ZNF112,-0.78,migration z between -2 and 2; enough cells,0.68,5294,inactive
HSPG2,-0.74,migration z between -2 and 2; enough cells,0.7,5664,inactive
MCHR1,-0.8,migration z between -2 and 2; enough cells,0.65,5518,inactive
STX11,-0.36,migration z between -2 and 2; enough cells,0.8,6278,inactive
TUBB2B,-0.39,migration z between -2 and 2; enough cells,0.78,6098,inactive
CSRNP2,-0.02,migration z between -2 and 2; enough cells,0.88,5820,inactive
TMEM39B,1.05,migration z between -2 and 2; enough cells,1.16,6168,inactive

Quoted from above, 2 entries:
gene symbol,migration robust z-score,migration class with cell-count check,migration relative to mock,"nuclei per well, duplicate mean",outcome
JADE1,0.91,migration z between -2 and 2; enough cells,0.98,5354,inactive
CUL5,0.75,migration z between -2 and 2; enough cells,0.95,5601,inactive
